This is an account of results in publication doi:10.1101/804138.

The exact form of at least one protein or probe is not confirmed. At least one verdict was read from the data and is not stated in words by the source.

In the series the test system is GapR1-89. Put plainly: EMSA. Conditions: 10 uM protein, 1 uM DNA.

Take “CGCGCGCGCGCG (double strand) [(dCG)6 12-mer]”: the binding result is “binds”.
